Data taken from US10449168B2 (The University of Toledo, priority 2015, dated 2019).
At least one compound was matched to its structure with a doubt left.

Target: Vibrio cholerae aspartate semialdehyde dehydrogenase (vcASADH)
Test: vcASADH kinetic assay: reverse direction, NADPH absorbance at 340 nm; Ki from Dixon plot assuming competitive inhibition against ASA
Assay type: biochemical
Conditions: pH 8.6, r.t., 0.3 mM ASA, 1.5 mM NADP, 20 mM phosphate

Structure (SMILES)	Ki (FIG. 4, Table 1)	Ki (FIG. 5, Table 2)
O=C(O)CN(CCN1CCOCC1)Cc1ccc(C(=O)O)c(C(=O)O)c1 [Compound 16, N-(ethylmorpholino)-N-carboxymethyl-3,4-dicarboxybenzylamine]	692 ± 39 µM	
O=C(O)CN(Cc1ccc(Br)cc1)Cc1ccc(C(=O)O)c(C(=O)O)c1 [Compound 20, N-(4-bromobenzyl)-N-carboxymethyl-3,4-dicarboxybenzylamine]		629 ± 53 µM
